Test results published in patent US20230029372A1, “THERAPEUTIC COMPOSITIONS AND METHODS FOR PREVENTION AND TREATMENT OF DIASTOLIC DYSFUNCTION” (AMBETEX PTY LTD, priority 2019, published 2023).

System: Male C57BL6 mice
Assay: Aβ42 administration study: plasma Aβ42, body measures, GTT with glucose tracers, cardiac TAG, gene expression
Assay type: in vivo
Settings: 1 μg/day i.p., five weeks

Aβ42: Lyophilised recombinant Aβ42 (Millipore)
no change: body composition | body weight | food intake
